These are yes or no findings as the source states them, for the method shown. Binding seen in cells or lysates may run through a third protein. A yes stands for co-enrichment or nearness to the bait. Other partners may have been found.
Biological target: endogenous SMYD2 (peritoneal macrophages) (mouse (endogenous in peritoneal macrophages)) (UniProt Q8R5A0)
Assay: affinity purification with mass spectrometry

The chains behind the UniProt entries cited, without tags or fusion partners.
UniProt Q8R5A0: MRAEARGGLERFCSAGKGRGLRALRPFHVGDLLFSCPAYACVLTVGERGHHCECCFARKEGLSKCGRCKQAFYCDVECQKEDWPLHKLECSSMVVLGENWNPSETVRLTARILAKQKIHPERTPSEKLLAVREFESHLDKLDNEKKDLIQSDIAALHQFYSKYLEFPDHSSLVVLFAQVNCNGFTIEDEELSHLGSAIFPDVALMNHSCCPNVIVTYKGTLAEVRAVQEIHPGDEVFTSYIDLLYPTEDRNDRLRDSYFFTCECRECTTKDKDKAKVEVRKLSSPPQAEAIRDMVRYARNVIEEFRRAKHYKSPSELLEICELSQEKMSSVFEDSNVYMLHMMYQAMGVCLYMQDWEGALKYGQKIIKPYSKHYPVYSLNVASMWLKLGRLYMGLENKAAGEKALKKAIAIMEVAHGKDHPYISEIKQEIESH
UniProt P63087: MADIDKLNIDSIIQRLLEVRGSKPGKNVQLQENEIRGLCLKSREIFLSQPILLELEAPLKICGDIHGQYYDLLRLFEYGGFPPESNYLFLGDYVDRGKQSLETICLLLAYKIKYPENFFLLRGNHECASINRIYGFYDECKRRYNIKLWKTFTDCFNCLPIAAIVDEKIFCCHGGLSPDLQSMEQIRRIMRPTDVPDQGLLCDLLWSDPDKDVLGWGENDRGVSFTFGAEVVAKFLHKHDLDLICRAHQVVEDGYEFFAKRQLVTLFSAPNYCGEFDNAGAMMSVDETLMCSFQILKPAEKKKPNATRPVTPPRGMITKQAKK
UniProt P62137: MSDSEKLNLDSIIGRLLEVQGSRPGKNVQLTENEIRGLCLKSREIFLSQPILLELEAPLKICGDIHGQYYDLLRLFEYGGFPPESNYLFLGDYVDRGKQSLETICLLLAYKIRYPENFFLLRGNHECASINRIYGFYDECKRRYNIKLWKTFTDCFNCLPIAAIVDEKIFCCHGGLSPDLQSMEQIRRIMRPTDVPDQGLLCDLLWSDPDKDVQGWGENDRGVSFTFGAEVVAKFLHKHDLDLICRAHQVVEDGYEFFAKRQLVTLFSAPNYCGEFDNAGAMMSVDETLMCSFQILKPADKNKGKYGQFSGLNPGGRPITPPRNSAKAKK

endogenous Ppp1cc (peritoneal macrophages) (from UniProt P63087 1-323) (enzyme)
binding: binds

endogenous PP1α (peritoneal macrophages) (from UniProt P62137 1-330) (enzyme)
binding: binds

Reference: paper PMC10482964
